Our source for the binding values is paper PMC9723619.

These are yes or no findings as the source states them, for the method shown. Some binding calls cover weakened binding; strength is not graded here. For some assays here: Tags and fused reporters may be left off the sequences shown.

Test in all cases: cryo-EM structure; human pre-40S particles purified on anti-Flag beads from HEK Flp-In 293 T-Rex cells (baits SLX9, RIOK1 D324A, BYSL); states UTP14, RRP12-A and RRP12-B
Experiment [1] deals with T1, BUD23 (human) (human (endogenous in HEK Flp-In 293 T-Rex)) (UniProt O43709).
T1 sequence: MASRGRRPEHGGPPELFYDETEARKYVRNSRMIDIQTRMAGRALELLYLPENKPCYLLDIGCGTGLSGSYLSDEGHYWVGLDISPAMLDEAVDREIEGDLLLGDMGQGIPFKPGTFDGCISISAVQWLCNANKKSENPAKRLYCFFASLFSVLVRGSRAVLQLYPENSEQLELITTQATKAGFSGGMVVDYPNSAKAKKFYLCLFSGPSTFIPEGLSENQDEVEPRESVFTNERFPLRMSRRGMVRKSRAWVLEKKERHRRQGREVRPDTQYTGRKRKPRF

The target of experiment [2] is T2, RRP12 (human) (human (endogenous in HEK Flp-In 293 T-Rex)) (UniProt Q5JTH9).
T2 sequence: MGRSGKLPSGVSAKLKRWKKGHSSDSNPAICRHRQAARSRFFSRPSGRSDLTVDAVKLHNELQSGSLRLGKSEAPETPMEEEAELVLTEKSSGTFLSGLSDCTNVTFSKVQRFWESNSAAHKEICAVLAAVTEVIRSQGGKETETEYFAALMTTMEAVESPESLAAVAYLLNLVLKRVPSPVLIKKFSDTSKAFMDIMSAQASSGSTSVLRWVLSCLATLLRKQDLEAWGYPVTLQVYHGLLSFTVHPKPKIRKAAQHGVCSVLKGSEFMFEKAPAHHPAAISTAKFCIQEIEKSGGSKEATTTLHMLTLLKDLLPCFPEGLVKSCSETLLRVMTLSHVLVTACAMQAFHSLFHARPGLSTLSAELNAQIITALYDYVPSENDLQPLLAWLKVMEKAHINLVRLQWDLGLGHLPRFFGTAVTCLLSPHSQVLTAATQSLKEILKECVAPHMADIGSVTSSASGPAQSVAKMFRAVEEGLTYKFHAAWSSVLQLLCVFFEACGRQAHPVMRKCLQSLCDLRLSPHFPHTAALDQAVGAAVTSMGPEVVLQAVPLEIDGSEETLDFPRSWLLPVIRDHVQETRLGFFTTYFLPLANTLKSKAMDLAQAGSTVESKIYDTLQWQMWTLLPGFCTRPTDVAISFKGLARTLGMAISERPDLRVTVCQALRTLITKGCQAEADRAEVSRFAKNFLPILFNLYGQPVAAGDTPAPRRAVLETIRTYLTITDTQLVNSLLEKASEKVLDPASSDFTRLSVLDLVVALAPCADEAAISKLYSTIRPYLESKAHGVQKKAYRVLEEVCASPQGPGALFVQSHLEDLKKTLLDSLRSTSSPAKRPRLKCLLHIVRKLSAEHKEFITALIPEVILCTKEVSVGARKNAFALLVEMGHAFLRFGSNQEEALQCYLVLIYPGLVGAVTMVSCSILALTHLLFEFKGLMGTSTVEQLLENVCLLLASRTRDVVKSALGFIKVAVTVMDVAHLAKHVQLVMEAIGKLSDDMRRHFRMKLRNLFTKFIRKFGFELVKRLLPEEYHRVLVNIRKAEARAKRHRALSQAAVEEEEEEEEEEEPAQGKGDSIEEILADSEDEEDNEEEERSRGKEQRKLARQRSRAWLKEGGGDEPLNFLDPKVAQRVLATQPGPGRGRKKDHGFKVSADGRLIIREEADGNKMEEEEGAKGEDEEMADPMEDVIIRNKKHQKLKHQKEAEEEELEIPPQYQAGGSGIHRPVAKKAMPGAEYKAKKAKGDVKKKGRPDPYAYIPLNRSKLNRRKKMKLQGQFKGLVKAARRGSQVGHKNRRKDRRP

The target in experiment [3] is PNO1 (human) (human (endogenous in HEK Flp-In 293 T-Rex)), Q9NRX1. The settings on record: remark: other sources report otherwise.

B1: TRMT112 (human) (protein, UniProt Q9UI30 1-125)
chain: MKLLTHNLLSSHVRGVGSRGFPLRLQATEVRICPVEFNPNFVARMIPKVEWSAFLEAADNLRLIQVPKGPVEGYEENEEFLRTMHHLLLEVEVIEGTLQCPESGRMFPISRGIPNMLLSEEETES
Turning to B1, the binding entry in experiment [1] is reported as “binds”.

B2: BYSL (human) (protein, UniProt Q13895 1-437)
chain: MPKFKAARGVGGQEKHAPLADQILAGNAVRAGVREKRRGRGTGEAEEEYVGPRLSRRILQQARQQQEELEAEHGTGDKPAAPRERTTRLGPRMPQDGSDDEDEEWPTLEKAATMTAAGHHAEVVVDPEDERAIEMFMNKNPPARRTLADIIMEKLTEKQTEVETVMSEVSGFPMPQLDPRVLEVYRGVREVLSKYRSGKLPKAFKIIPALSNWEQILYVTEPEAWTAAAMYQATRIFASNLKERMAQRFYNLVLLPRVRDDVAEYKRLNFHLYMALKKALFKPGAWFKGILIPLCESGTCTLREAIIVGSIITKCSIPVLHSSAAMLKIAEMEYSGANSIFLRLLLDKKYALPYRVLDALVFHFLGFRTEKRELPVLWHQCLLTLVQRYKADLATDQKEALLELLRLQPHPQLSPEIRRELQSAVPRDVEDVPITVE
Regarding B2, the binding result in experiment [2] is reported as “binds”.

B3: BYSL (human), Q13895 1-437 (protein)
chain: MPKFKAARGVGGQEKHAPLADQILAGNAVRAGVREKRRGRGTGEAEEEYVGPRLSRRILQQARQQQEELEAEHGTGDKPAAPRERTTRLGPRMPQDGSDDEDEEWPTLEKAATMTAAGHHAEVVVDPEDERAIEMFMNKNPPARRTLADIIMEKLTEKQTEVETVMSEVSGFPMPQLDPRVLEVYRGVREVLSKYRSGKLPKAFKIIPALSNWEQILYVTEPEAWTAAAMYQATRIFASNLKERMAQRFYNLVLLPRVRDDVAEYKRLNFHLYMALKKALFKPGAWFKGILIPLCESGTCTLREAIIVGSIITKCSIPVLHSSAAMLKIAEMEYSGANSIFLRLLLDKKYALPYRVLDALVFHFLGFRTEKRELPVLWHQCLLTLVQRYKADLATDQKEALLELLRLQPHPQLSPEIRRELQSAVPRDVEDVPITVE
Take B3: the binding entry in experiment [3] is “binds”.

B4: BUD23 (human) (enzyme, UniProt O43709 1-281)
chain: MASRGRRPEHGGPPELFYDETEARKYVRNSRMIDIQTRMAGRALELLYLPENKPCYLLDIGCGTGLSGSYLSDEGHYWVGLDISPAMLDEAVDREIEGDLLLGDMGQGIPFKPGTFDGCISISAVQWLCNANKKSENPAKRLYCFFASLFSVLVRGSRAVLQLYPENSEQLELITTQATKAGFSGGMVVDYPNSAKAKKFYLCLFSGPSTFIPEGLSENQDEVEPRESVFTNERFPLRMSRRGMVRKSRAWVLEKKERHRRQGREVRPDTQYTGRKRKPRF
As for B4, the binding entry in experiment [2] is given as “binds”.

B5: SLX9 (human), N-terminal Strep-Flag-3C tagged (protein, UniProt Q9NSI2 1-230)
chain: MGKVRGLRARVHQAAVRPKGEAAPGPAPPAPEATPPPASAAGKDWAFINTNIFARTKIDPSALVQKLELDVRSVTSVRRGEAGSSARSVPSIRRGAEAKTVLPKKEKMKLRREQWLQKIEAIKLAEQKHREERRRRATVVVGDLHPLRDALPELLGLEAGSRRQARSRESNKPRPSELSRMSAAQRQQLLEEERTRFQELLASPAYRASPLVAIGQTLARQMQLEDGGQL
Turning to B5, in experiment [2], the binding entry is listed as “binds”.
